Results are given as percent effect.
The record does not define 0% and 100%; most values in the screen are far below 50% and negative numbers occur (in some assays of this library far below -100).
This is an unselected part of the compounds tested.
Two or more numbers in one place are separate tests of the same structure; such repeats can differ widely.

Mtb cholesterol medium: 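Phenotypic screen: M. tuberculosis growth, cholesterol and DPPC medium, 4 days; the read-out is not stated. Compounds at 50 µM. Direction is inferred from retests: higher values go with more growth inhibition. Size under these conditions: about 69,000 compounds, about 370 of them at 50% or above in at least one test.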
Mtb glucose medium: 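Whole-cell growth test on Mycobacterium tuberculosis, read after 3 days in glucose-containing 7H9 medium; the read-out is not stated. Compounds at 50 µM. Direction is inferred from retests: higher values go with more growth inhibition. Size under these conditions: about 69,000 compounds, about 760 of them at 50% or above in at least one test.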

SMILES	Mtb cholesterol medium	Mtb glucose medium
Cc1nc(C(=O)Nc2cccnc2)c(C(C)C)s1	-3.402%	16.73% & 21.36%
O=C(COc1cc(Cl)cc(Cl)c1)NCc1nncn1C1CC1	5.305%	3.909% & 6.956%
Cc1nn(C)cc1-c1cc(C(F)(F)F)n(CCCN)n1	-6.81%	10.15%
CCCc1nc(C(=O)N2CCN(C(=O)OC)CC2)cs1	-1.574%	-17.59% & 0.4093%
Cn1cc(CN2CCC(F)(F)C3(CCN(c4cccc(F)c4)C3)C2)cn1 (centres undefined)	-20%	-8.943%
Cc1ccccc1C(=O)NC1CCN(c2cnn(C)c2)C1=O (centres undefined)	1.196%	-1.027% & 9.591%
O=C(CC1CC1)N1CCC2(COCc3cnc(N4CCOCC4)nc32)C1 (centres undefined)	13.24% & 0.4448%	-22.1%
Fc1cccc(Cl)c1CNCCOc1ccccn1	11.33%	0.8919% & 97.69%
Cc1ncsc1C(=O)NCCN1CCCCCC1=O	-7.475%	-2.653%
Cc1cccc2cc(CNCCCN3CCOCC3)c(=O)[nH]c12	19.61%	-5.712%
Cc1nn(Cn2ccc(C(=O)N3CCCCCC3)n2)c(C)c1Cl	0.4739%	14.23% & 23.94%
O=C(CCc1cscn1)NS(=O)(=O)c1ccc2c(c1)CCC2	-30.53%	-7.081% & -4.719%
COCCNc1ccc(CC2CCCNC2)cn1.Cl (centres undefined)	3.518%	21.05%
Cl.O=C(N1CCOCC1)N1CCC2(CCNC2)C1 (centres undefined)	1.873%	2.198%
COC(=O)c1sccc1S(=O)(=O)NCCC(O)c1ccco1 (centres undefined)	5.141%	-8.122% & 13.36%
N#CCCN(C(=O)CN1CCCC1c1ccsc1)c1ccccc1F (centres undefined)	8.045%	38.54%
Cc1ccc(CC(=O)NCC(O)c2cc(Cl)cc(Cl)c2)cn1 (centres undefined)	0.1489%	1.622%
CC(C(N)=O)N1CCN(c2ncc(Cl)cn2)CC1 (centres undefined)	-11.74%	2.22%
O=c1nc(SCc2cccnc2)c2c(n1CCO)CCC2	-16.01%	12.88% & -1.338%
CN(Cc1ccco1)Cc1ccccc1CNC(=O)c1cnccn1	12.34%	4.571% & 21.18%
CCS(=O)(=O)N1CCCC2(CCCN2C(=O)c2cscn2)C1 (centres undefined)	-5.375% & 7.022%	-31.18% & 0.984%
c1ccc(COCCN2CCc3[nH]cnc3C2c2ccco2)cc1 (centres undefined)	-1.886%	1.652%
O=C(CCc1cc2n(n1)CCN(CCCn1cccc1)C2)N1CCCC1	20.19%	-2.327%
CN(C)c1cc(CNC(=O)CC2CCCCC2)ccn1	-8.376%	-4.22%
Cc1ccc(CN2CCC3(CCCN3C(=O)C(C)C)CC2)o1	-2.721%	-29.28%
Cc1cc(C(=O)N(Cc2c(C)nn(C)c2C)C(C)C)nc(C)n1	-21.71%	-15.34% & -4.373%
CCn1nc(C)c(C(=O)NCc2csc(C3CC3)n2)c1C	26.27%	24.79% & 13.93%
Cc1noc(C)c1S(=O)(=O)N1CCC(n2cccn2)CC1	-8.206%	-13.43%
CC(C)=CCCC1(C)CCC(=O)N(CCc2csc(N)n2)C1 (centres undefined)	-3.24%	11.62%
Cn1cc(C(=O)N2CCN(c3ccc(F)cc3)CC2)ccc1=O	15.89%	10.35%
O=S(=O)(NCC1CCN(c2cnccn2)CC1)c1c(F)cccc1F	2.525%	10.89%
COc1ccc(C[C@H]2CN(C(=O)c3cc(C)no3)CC[C@H]2OC)cc1	14.83%	16.57%
COc1ccnc(N(C)Cc2ccco2)n1	-7.449% & -35.02%	-8.779% & -36.01%
Cc1ccc(CC(=O)NCCCNS(C)(=O)=O)cc1	-33.2%	-32.19%
COCCCN(Cc1ccncc1)c1ncc(C#N)cc1Cl	-9.979%	11.32% & -14.33%
CC(C)N(C)[C@@H]1CCN(Cc2ccco2)[C@H]1Cc1ccccc1	-7.998%	-7.879% & -4.508%
Cc1ncoc1C(=O)N1CC[C@@]2(C[C@H](NS(C)(=O)=O)CCO2)C1	-12.53% & -0.5237%	-6.881%
Cc1nc(C2CCCN(C(=O)CN3CCCNC3=O)C2)sc1C (centres undefined)	-24.55% & -0.7108%	2.735%
CC(C)(C)c1ncc(CNc2ccccc2SCCC(N)=O)s1	0.03454%	-3.694%
O=C(CO)N1CCC(c2ccnc(Nc3cc(C(F)(F)F)ccn3)n2)C1 (centres undefined)	-7.436%	-20.09%
CC(C)=CCN1CC2(CCN(Cc3cccc(C#N)c3)CC2)CC1=O	-7.197%	-24.58%
COc1ccc(S(=O)(=O)NC(=O)COC2CCCCC2)cc1C	-2.473%	-1.389%
[H][C@@]12CN(C(=O)c3ccc(C)nc3)C[C@]1([H])OCCN2CC1CCCC1	-8.293% & -7.247%	-10.69%
CC(CNC(=O)c1cccnc1Oc1cccnc1)N(C)C (centres undefined)	9.222%	5.006%
CC(COc1ccccc1)NS(C)(=O)=O (centres undefined)	10.84%	21.69%
[H][C@@]12CCN(S(C)(=O)=O)CC[C@]1(C(=O)Nc1ccccc1)CCN2C(C)=O	-3.324%	18.18%
Cc1cccc(CN2CCCC3(CCN(CC(=O)N(C)C)C3=O)C2)n1.O=C(O)C(F)(F)F (centres undefined)	2.695% & -8.315%	-1.988%
Cc1nc(C)n(CC2CCCN(CCC(=O)N3CCCCC3)C2)n1 (centres undefined)	-1.533%	-8.551%
O=C(O)C(F)(F)F.O=C(O)C(F)(F)F.[H][C@]12CCN(c3ncccn3)C[C@@]1([H])OCCN(Cc1ccncc1)C2	-18.81%	0.8241%
COCc1ncc(CN2CCN(C)C(=O)C2C)cn1 (centres undefined)	-8.587%	-22.85%
CCOc1cc(F)ccc1NC(=O)NCC(c1cnn(C)c1)N(C)C (centres undefined)	-2.127%	16.41%
CCOc1ccc(Cl)cc1NC(=O)N1CCC(n2cncn2)CC1	-9.78%	27.33%
Cc1nn(C)c(C)c1CNC1CCOc2ccccc21 (centres undefined)	-16.14%	-13.37%
CC(C)N(Cc1cccc(F)c1)Cc1nc2c(cnn2C)c(=O)[nH]1	11.94%	10.06%
Cc1[nH]nc(CCC(=O)NCC2COc3ccccc3C2)c1C (centres undefined)	-15.02%	-20.7% & -2.71%
O=C1CC[C@@H](CN(Cc2ccncc2)Cc2nc(-c3cccs3)no2)N1	12.32%	11.29%
Cc1cnn(C2CCCN(C(=O)c3cn4cccnc4n3)C2)c1 (centres undefined)	5.253%	13.71%
Cc1cccc(CN2CCc3ncnc(C)c3CC2)n1.O=C(O)C(F)(F)F	-17.13%	-10.36%
CC1(C)CC(N(Cc2cccnc2)Cc2cccc(F)c2)CC(C)(C)N1.O=C(O)CC(O)(CC(=O)O)C(=O)O	-2.333%	15.47%
CCCN1CCN(c2ccc(-c3nc(C)no3)cn2)CC1	-41.15%	-9.986% & -37.37%
O=C(O)C(F)(F)F.O=C(O)C(F)(F)F.[H][C@@]12CCN(Cc3cc(C)on3)C[C@]1([H])OCCN(c1ccc(C)nc1)C2=O	-0.8178% & -14.54%	-34.42%
CCc1nc(NS(=O)(=O)c2cc(C)ccc2Br)no1	18.9%	38.89%
COc1cc(F)cc2sc(NC(=O)COCC3CCCO3)nc12 (centres undefined)	-17.34%	-28.28%
Cc1nn(C)c(C)c1NC(=O)CN1CCCC1c1c(C)nn(C)c1C (centres undefined)	-23.53%	7.329%
Cc1ccc(N2CCCC3(CCN(C(=O)CC(F)(F)F)C3)C2)nn1 (centres undefined)	-2.356%	-5.385%
O=C1CCC2(CCCN(C(=O)c3cscn3)C2)CN1CCc1c[nH]cn1 (centres undefined)	-11.66%	-1.994%
Cc1cc(C(=O)N(CC2CCCO2)c2ccncc2)c(C)o1 (centres undefined)	-8.213%	10.61%
O=C(O)C(F)(F)F.O=C(O)C(F)(F)F.[H][C@@]12CN(Cc3ccc(OC)cc3)C[C@]1([H])C(=O)N(Cc1ccncc1)C2	13.63%	1.05%
Cc1ccc(CNC(=O)c2c[nH]nc2NC(=O)C2COCCO2)cc1 (centres undefined)	4.894%	-3.604%
COC(=O)COn1c(SCC(=O)OC)nc2ccccc2c1=O	34.97%	20.31%

From ChEMBL document CHEMBL3988442, “University of Dundee, Small-Polar-MMV Screening Library” (2021).